This note sets out measurements from PMC9533685, “NICD3 regulates the expression of MUC5AC and MUC2 by recruiting SMARCA4 and is involved in the differentiation of mucinous colorectal adenocarcinoma” (Molecular Oncology, 2022).

The chains behind the UniProt entries cited, without tags or fusion partners. Residues count along the entry.
UniProt P51532: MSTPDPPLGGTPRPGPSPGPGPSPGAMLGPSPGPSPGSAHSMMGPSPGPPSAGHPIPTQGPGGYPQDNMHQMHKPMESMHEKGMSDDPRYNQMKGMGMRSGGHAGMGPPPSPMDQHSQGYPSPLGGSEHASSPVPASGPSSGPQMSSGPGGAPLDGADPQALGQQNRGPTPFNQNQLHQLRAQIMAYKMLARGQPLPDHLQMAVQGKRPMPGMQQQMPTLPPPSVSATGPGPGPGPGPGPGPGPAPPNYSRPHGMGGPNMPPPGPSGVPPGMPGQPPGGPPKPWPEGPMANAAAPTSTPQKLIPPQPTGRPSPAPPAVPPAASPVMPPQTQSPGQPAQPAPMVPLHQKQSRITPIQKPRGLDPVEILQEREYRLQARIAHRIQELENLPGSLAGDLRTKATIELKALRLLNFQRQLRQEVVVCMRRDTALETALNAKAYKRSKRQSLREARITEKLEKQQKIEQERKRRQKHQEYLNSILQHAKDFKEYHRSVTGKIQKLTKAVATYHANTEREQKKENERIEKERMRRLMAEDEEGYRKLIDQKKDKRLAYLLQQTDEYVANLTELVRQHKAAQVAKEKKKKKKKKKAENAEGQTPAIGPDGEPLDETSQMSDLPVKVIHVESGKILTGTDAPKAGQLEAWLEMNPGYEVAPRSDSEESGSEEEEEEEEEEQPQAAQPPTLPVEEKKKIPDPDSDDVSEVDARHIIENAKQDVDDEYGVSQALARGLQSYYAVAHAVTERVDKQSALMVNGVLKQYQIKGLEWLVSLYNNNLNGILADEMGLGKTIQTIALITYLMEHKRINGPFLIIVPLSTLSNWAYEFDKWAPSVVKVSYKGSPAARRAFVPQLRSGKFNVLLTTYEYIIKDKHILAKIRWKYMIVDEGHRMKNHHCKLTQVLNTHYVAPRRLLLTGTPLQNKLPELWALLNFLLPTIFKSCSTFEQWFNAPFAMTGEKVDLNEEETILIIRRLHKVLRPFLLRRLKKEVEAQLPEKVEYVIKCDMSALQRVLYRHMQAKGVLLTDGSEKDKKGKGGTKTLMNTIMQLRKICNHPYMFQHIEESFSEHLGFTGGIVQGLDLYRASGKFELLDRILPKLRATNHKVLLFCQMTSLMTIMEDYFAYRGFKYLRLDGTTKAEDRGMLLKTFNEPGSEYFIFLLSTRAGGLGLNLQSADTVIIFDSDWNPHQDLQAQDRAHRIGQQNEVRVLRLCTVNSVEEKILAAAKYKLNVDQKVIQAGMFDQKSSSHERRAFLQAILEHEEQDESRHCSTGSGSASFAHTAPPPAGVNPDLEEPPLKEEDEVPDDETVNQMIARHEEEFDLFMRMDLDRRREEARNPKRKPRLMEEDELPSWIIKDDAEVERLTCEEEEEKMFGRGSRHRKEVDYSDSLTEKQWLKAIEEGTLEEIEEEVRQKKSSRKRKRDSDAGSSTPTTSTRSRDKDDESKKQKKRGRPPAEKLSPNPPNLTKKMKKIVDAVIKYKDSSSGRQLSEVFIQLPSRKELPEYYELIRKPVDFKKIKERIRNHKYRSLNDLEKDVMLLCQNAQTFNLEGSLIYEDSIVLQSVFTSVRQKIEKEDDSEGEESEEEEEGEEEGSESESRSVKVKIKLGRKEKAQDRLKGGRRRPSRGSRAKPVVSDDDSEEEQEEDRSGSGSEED
UniProt Q9UM47, residues 40-2321: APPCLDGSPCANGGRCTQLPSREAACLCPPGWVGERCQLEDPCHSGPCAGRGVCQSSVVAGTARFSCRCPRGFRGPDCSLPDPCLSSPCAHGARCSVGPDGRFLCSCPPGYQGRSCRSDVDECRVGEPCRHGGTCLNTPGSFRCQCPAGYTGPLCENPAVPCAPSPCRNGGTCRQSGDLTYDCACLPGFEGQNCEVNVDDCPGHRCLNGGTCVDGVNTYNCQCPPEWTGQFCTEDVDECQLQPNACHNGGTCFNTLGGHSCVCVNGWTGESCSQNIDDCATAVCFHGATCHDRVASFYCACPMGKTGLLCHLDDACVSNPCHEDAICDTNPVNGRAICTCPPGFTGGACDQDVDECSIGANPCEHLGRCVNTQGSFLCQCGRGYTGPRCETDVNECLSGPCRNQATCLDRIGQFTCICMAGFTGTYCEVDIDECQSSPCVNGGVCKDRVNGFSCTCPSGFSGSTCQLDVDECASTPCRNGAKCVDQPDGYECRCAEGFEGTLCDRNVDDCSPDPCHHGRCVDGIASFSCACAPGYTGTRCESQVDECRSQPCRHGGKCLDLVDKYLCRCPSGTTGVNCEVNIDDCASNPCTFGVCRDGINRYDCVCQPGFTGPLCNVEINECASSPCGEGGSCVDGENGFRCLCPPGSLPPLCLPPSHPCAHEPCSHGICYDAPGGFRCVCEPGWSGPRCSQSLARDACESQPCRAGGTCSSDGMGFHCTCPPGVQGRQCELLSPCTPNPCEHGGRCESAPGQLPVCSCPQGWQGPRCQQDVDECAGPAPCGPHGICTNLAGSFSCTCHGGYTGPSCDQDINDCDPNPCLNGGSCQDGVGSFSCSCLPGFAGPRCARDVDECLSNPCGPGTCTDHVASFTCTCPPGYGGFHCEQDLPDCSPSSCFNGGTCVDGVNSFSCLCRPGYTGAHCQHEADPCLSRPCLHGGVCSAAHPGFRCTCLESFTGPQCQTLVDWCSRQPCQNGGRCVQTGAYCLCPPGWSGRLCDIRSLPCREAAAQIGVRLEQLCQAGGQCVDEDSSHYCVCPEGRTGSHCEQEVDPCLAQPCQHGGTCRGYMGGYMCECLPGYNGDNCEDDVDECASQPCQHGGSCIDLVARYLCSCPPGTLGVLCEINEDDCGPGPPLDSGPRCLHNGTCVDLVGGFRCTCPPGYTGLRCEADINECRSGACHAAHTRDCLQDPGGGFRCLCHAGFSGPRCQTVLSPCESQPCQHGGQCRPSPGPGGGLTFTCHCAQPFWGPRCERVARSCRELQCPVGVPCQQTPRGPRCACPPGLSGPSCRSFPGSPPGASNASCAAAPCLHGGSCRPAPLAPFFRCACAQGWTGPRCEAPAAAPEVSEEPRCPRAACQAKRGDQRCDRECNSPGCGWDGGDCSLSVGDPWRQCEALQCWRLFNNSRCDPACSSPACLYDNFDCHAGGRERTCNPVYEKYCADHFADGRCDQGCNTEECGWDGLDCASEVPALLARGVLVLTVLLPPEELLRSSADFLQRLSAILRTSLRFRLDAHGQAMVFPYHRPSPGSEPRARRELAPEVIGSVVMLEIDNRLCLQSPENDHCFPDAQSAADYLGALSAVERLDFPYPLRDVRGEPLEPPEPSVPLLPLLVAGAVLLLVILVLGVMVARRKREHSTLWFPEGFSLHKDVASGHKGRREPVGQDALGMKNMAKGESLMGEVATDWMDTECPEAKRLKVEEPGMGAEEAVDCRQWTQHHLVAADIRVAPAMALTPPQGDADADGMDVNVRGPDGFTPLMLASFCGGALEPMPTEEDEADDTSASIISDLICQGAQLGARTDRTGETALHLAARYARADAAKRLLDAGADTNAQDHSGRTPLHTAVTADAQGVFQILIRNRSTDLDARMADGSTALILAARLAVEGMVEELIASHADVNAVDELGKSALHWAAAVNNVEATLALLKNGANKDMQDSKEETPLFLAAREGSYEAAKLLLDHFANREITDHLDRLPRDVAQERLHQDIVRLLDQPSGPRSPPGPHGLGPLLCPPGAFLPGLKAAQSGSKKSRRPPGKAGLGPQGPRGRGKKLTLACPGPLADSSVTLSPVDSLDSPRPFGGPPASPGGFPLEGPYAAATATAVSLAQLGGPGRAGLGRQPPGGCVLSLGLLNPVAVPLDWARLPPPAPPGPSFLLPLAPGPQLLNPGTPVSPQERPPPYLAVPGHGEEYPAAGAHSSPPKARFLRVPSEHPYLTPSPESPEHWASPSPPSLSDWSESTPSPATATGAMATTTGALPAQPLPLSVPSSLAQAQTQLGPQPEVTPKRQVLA

No constants are given. Whether binding was seen depends on the method and setting. In cells and extracts the contact can be indirect. Some entries that bind do so weakly or less than the wild type.

For this assay, the target named is Transcription activator BRG1 (SMARCA4), endogenous in colorectal cancer cells (human (endogenous in HCT116, HT29, SW480, SW620)) (UniProt P51532). The experiment in a line: co-IP; endogenous proteins in RIPA lysates of HCT116, HT29, SW480 and SW620 cells; IP with anti-NOTCH3 or anti-SMARCA4, protein A/G beads, 4 °C; IgG as negative control; Western blot. A general note: In western blotting, separated proteins are transferred to a membrane and probed.

As to “Neurogenic locus notch homolog protein 3 (NOTCH3), endogenous in colorectal cancer cells (from UniProt Q9UM47 40-2321) (receptor)”, the binding entry was “binds”.
